# Article PMC6718149, “Structure of GTP cyclohydrolase I from Listeria monocytogenes, a potential anti-infective drug target” (Acta Crystallographica. Section F, Structural Biology …, 2019)
# No constants are given. Whether binding was seen depends on the method and setting. Some entries that bind do so weakly or less than the wild type.
# B1: GTP cyclohydrolase I from Listeria monocytogenes (enzyme, L. monocytogenes)
# chain: EQIDKQKIADAVKVILEAVGENPDREGLIDTPMRVARMYEEVFAGLKKDPSVHFDTIFEEQHEELVLVKDIRFSSMCEHHLVPFFGVAHVAYLPQNGRVAGLSKLARVVDDVSRRPQLQERITTTVAEIMMEKLKPLGVMVIMEAEHMCMTIRGVNKPGTKTITSAVRGAFKNDDKLRSEVLALIKHN
# modifications: Cys78 and Cys150 oxidized to the disulfide level (in the crystal; zinc lost)
# notes: GTP cyclohydrolase I (folE), L. monocytogenes ATCC BAA-679; the natural stretch begins at Glu (first cloned triplet GAG) and runs to the stop codon; the printed Cys78 and Cys150 fit numbering with this Glu as residue 2; D5-symmetric homodecamer; also called LmGTPCHI; His6-EK-LmGTP-CHI; source: E. coli XL1-Blue (plasmid pNCO-His6-EK-LmGTP-CHI), purified (nickel-NTA agarose, Superdex 200); not …
# Target: GTP cyclohydrolase I from Listeria monocytogenes (L. monocytogenes)
# Test: AUC; equilibrium sedimentation and boundary sedimentation (9.6 S); conditions not shown; both purified
binder,measurement,value
B1,binding,binds
